Test results taken from article PMC7260190.
No constants are given. Whether binding was seen depends on the method and setting. Some results given as binding are weak or reduced against the parent protein; the word gives no strength.

Biological target: T1, NLG-1 intracellular domain [aa. 710-798], two-hybrid bait (Caenorhabditis elegans) (UniProt Q9XTG1)
T1 sequence: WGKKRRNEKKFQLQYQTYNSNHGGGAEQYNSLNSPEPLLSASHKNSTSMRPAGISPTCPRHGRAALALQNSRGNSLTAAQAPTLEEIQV
Assay: two-hybrid; Hybrigenics; NLG-1 fragment as bait, LIN-2B as prey; HIS3 reporter, growth on DO-3 medium without tryptophan, leucine and histidine; three independent yeast clones

- binding: binds
B1: LIN-2B full length [aa. 1-620], two-hybrid prey (protein, UniProt P54936-2 1-620)
chain: MSSAATPPPMEHTSSEDSTTAPLQTPSSSSCLDVTVAVGTSVSYLKASPLVSSPTSLVVDITESSSTLLYDKIKALPCEPVVTEVDTSTLRKETLNQIDGLLGPSPEALELRQLLNSPHLASCVQALDVVVCEIRDPKNEASGSGDKEGNCVSSDPAPAYLNGGVLPLGAQRAGTSFEHFNQSAVHTSYDEEEEELYDCMSRLRLVQFQKDTQEPMGITLKVNEDGRCFVARIMHGGMIHRQATLHVGDEIREINGMSVANRSVESLQEMLRDARGQVTFKIIPSYRSAPPACEIFVRAQFDYEPSQDDLIPCPQAGIPFKTGDILQVISKDDHNWWQARFVSSFPSIGNSSNAQRSNQQQVAGLIPSPELQEWRTACLAMERSKNTCNTHCMWFNKKKKYYTTKYLQKHSALFDQLDLVTYEEVMRLSQYRRKTLVLLGAHGVGRRHIKNTLIHRHPNRFAYPIPHTTRPPRKDEVDGKHYYFVTNEQMMADIQNNEYLEYGTHEESMYGTKLETIRNIHKSGKIAILDVEPQALKVLRTAEYSPFVVFIAAPNLQGMQDPDGSLEKLLNESDVLRQAFGHLFDFIITNSDIDDTIAQLERLVEKLPAYPQWLPVTWVY
